# Values from PubChem BioAssay AID652272 (Drosophila RNAi Screening Center, 2013)
# Test: 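Finding fly genes that regulate Hedgehog signal transduction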 (primary screen)
# Cells: Drosophila clone 8 (Cl8) cells
# Knock-down reagent: long dsRNA against Drosophila genes
# Measurement: 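Plate reader light from a firefly reporter under a ptc promoter fragment that responds to Hedgehog, with Renilla light as transfection reference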
# Direction: firefly Hh reporter signal: higher = more ptc reporter light; Renilla reference signal: higher = more Renilla control light
# Rule for the call: 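Called a hit if the two-replicate mean z-score lies below -2 or above +3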
# Meaning of the calls: active = hit: reporter lowered or raised; inactive = not a hit
# The screen tested about 21,000 reagents; this is a random part of those that have a named target and a result. In the full data, 503 (2.4%) are marked active. 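Raw plate light values, not normalised; calls rest on replicate z-scores that were not deposited; hits include reporter decreases as well as increases.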 A plus sign joins genes that one reagent is predicted to hit. Not given: the amount of reagent, the time to read-out.
target gene,amplicon,"firefly Hh reporter signal, replicate 1","firefly Hh reporter signal, replicate 2","firefly Hh reporter signal, replicate 3","Renilla reference signal, replicate 1","Renilla reference signal, replicate 2",call
CG7990,DRSC19296,5.71e5,2.80e5,,36870,7241,inactive
CG7990,DRSC20069,54947,46432,,1574,1146,inactive
Mal-A5 (Maltase A5),DRSC07232,82363,59177,,3504,2219,inactive
Tsp68C (Tetraspanin 68C),DRSC09295,2.12e5,,,3234,,inactive
chrb (charybde),DRSC11335,2.02e5,5.20e5,1.20e5,7604,30592,inactive
Sh3beta,DRSC11001,1.76e5,1.10e5,,5482,3585,inactive
nopo (no poles),DRSC06918,98667,53404,,4790,2208,inactive
klar (klarsicht),DRSC08718,1.61e5,1.19e5,,6973,4889,inactive
ClC-a (Chloride channel-a),DRSC14947,56966,1.19e5,,2210,3357,inactive
ClC-a (Chloride channel-a),DRSC14948,95914,1.62e5,,3696,4608,inactive
ClC-a (Chloride channel-a),DRSC16142,1.24e5,67884,,4490,2951,inactive
DUBAI + Tmem18,DRSC05344,1.70e5,2.92e5,,4268,12934,inactive
Ser12 (Serine protease 12),DRSC00786,1.01e5,78684,,2182,1560,inactive
RNaseX25 (Ribonuclease X25),DRSC11259,82128,64549,,3468,2784,inactive
CG4372,DRSC04466,78997,64938,,2653,5724,inactive
CG14982,DRSC08440,60150,26099,,1648,1896,inactive
CG33286,DRSC11691,1.06e5,1.31e5,,3899,3810,inactive
CG17707,DRSC20650,64480,2.71e5,,2044,11202,inactive
CG42375 + CG9288,DRSC16468,2.43e5,1.66e5,,8501,5629,inactive
Nmt (N-myristoyl transferase),DRSC11236,50804,71321,,2032,5496,inactive
Noc2 (Nucleolar complex protein 2),DRSC03165,40733,47072,,1681,1786,inactive
Zmynd8 (Zinc finger MYND-type containing 8),DRSC15310,1.12e5,53920,,2885,1800,inactive
melt (melted),DRSC11367,91579,61041,,9207,4364,inactive
CG5188,DRSC02826,1.19e5,79921,,3043,6028,inactive
CG14803,DRSC18556,1.36e5,2.88e5,,5003,9866,inactive
pll (pelle),DRSC17026,1.62e5,96752,,3571,2608,inactive
CG14142,DRSC10145,48208,44161,68998,4368,5575,inactive
CG11696,DRSC19417,1.12e5,77857,,2745,2012,inactive
CG17010,DRSC02559,1.24e5,85671,,5701,3201,inactive
qjt (quijote),DRSC10060,1.03e5,,,4153,2936,inactive
CG9205,DRSC08642,1.09e5,67473,,4589,2848,inactive
Nf-YB (Nuclear factor Y-box B),DRSC02057,92717,69699,,2139,4979,inactive
betaTub65B (beta-Tubulin at 65B),DRSC11393,88489,94439,,9421,6320,inactive
Blos3,DRSC09573,6.11e5,1.25e5,,5543,5543,inactive
Orc1 (Origin recognition complex subunit 1),DRSC07496,4.69e5,73889,,4045,4045,inactive
"DCTN1-p150 (Dynactin 1, p150 subunit)",DRSC11175,1.22e5,83938,,4208,2601,inactive
CG1738,DRSC19772,59672,1.94e5,,1689,9259,inactive
Ih (I[[h]] channel),DRSC05477,1.68e5,3.69e5,,4000,14258,inactive
Ih (I[[h]] channel),DRSC07445,99765,54508,,4355,2802,inactive
Polr3B (RNA polymerase III subunit B),DRSC07536,61345,49163,,2992,1994,inactive
TbCMF46,DRSC02221,85536,41024,,2219,3409,inactive
IntS10 (Integrator 10),DRSC08173,71152,47586,,1897,3302,inactive
Or13a (Odorant receptor 13a),DRSC20265,56976,1.70e5,,1505,7027,inactive
moody,DRSC18515,1.13e5,2.76e5,,4791,11616,inactive
Mitofilin,DRSC16742,91832,71082,,3804,2929,inactive
CG4927,DRSC06903,65671,44982,,2156,3365,inactive
Acbp5 (Acyl-CoA binding protein 5),DRSC10548,62064,55284,,6121,4152,inactive
CG14708,DRSC14930,65276,1.12e5,,1906,6199,inactive
CG14537,DRSC02395,1.24e5,57063,,3408,5824,inactive
RPA3 (Replication protein A3),DRSC19658,83488,1.92e5,,2794,7990,inactive
CG14478,DRSC06450,94598,41499,,2561,3264,inactive
CG13526,DRSC04168,91286,58806,,2071,5399,inactive
spz5 (spatzle 5),DRSC08645,1.44e5,86551,,6004,3724,inactive
Jon66Ci (Jonah 66Ci),DRSC10772,44604,40186,,4780,3527,inactive
CG14851,DRSC14975,1.37e5,1.41e5,,4787,3709,inactive
Ravus,DRSC15126,71690,49665,,2400,1554,inactive
SERCA (Sarco/endoplasmic reticulum Ca(2+)-ATPase),DRSC04600,64167,80151,,3200,3112,inactive
Cyp49a1 (Cytochrome P450 49a1),DRSC06737,1.28e5,71020,,2877,5578,inactive
Cyp49a1 (Cytochrome P450 49a1),DRSC07367,1.50e5,44352,,3752,4178,inactive
CG11593,DRSC08206,93543,40834,,3275,2668,inactive
Utx (Utx histone demethylase),DRSC02872,1.57e5,76744,,3817,5307,inactive
CG4763,DRSC04009,1.23e5,1.43e5,,3244,7677,inactive
CG4763,DRSC04487,77957,69850,,1715,6912,inactive
CG6424,DRSC05936,94522,77220,,4281,3168,inactive
Best1 (Bestrophin 1),DRSC16909,1.04e5,2.01e5,,3084,6147,inactive
yem (yemanuclein),DRSC14865,1.22e5,1.12e5,,4272,2205,inactive
yem (yemanuclein),DRSC17097,70293,87275,,2848,1987,inactive
Tom20 (Translocase of outer membrane 20),DRSC10899,1.48e5,88512,,6272,4304,inactive
Uro (Urate oxidase),DRSC03469,1.02e5,70899,,1672,6107,inactive
CG11563,DRSC14327,83626,1.45e5,,3392,7444,inactive
yip2 (yippee interacting protein 2),DRSC03640,90645,45767,,2395,4096,inactive
SRPK (SR Protein Kinase),DRSC07090,73403,75953,,3739,3239,inactive
CG34282,DRSC16298,6.06e5,1.46e5,,29495,3427,inactive

Part of the list above in another layout.
CG6424 [DRSC05936] → firefly Hh reporter signal, replicate 1: 94522; firefly Hh reporter signal, replicate 2: 77220; Renilla reference signal, replicate 1: 4281; Renilla reference signal, replicate 2: 3168; call: inactive
Best1 (Bestrophin 1) [DRSC16909] → firefly Hh reporter signal, replicate 1: 1.04e5; firefly Hh reporter signal, replicate 2: 2.01e5; Renilla reference signal, replicate 1: 3084; Renilla reference signal, replicate 2: 6147; call: inactive
yem (yemanuclein) [DRSC14865] → firefly Hh reporter signal, replicate 1: 1.22e5; firefly Hh reporter signal, replicate 2: 1.12e5; Renilla reference signal, replicate 1: 4272; Renilla reference signal, replicate 2: 2205; call: inactive
yem (yemanuclein) [DRSC17097] → firefly Hh reporter signal, replicate 1: 70293; firefly Hh reporter signal, replicate 2: 87275; Renilla reference signal, replicate 1: 2848; Renilla reference signal, replicate 2: 1987; call: inactive
Tom20 (Translocase of outer membrane 20) [DRSC10899] → firefly Hh reporter signal, replicate 1: 1.48e5; firefly Hh reporter signal, replicate 2: 88512; Renilla reference signal, replicate 1: 6272; Renilla reference signal, replicate 2: 4304; call: inactive
Uro (Urate oxidase) [DRSC03469] → firefly Hh reporter signal, replicate 1: 1.02e5; firefly Hh reporter signal, replicate 2: 70899; Renilla reference signal, replicate 1: 1672; Renilla reference signal, replicate 2: 6107; call: inactive
CG11563 [DRSC14327] → firefly Hh reporter signal, replicate 1: 83626; firefly Hh reporter signal, replicate 2: 1.45e5; Renilla reference signal, replicate 1: 3392; Renilla reference signal, replicate 2: 7444; call: inactive
